Measurements reported in PubChem BioAssay AID1671190 (National Center for Advancing Translational Sciences (NCATS), 2021).
Values joined by “and” are separate entries in the source; they are usually repeats but may differ in a detail not shown here. Equal values may be shown once. Among all 580,000 compounds or so, about 6,100 (1.1%) were called active. Inconclusive results, whose numbers are uncertain, are shown with a selection of clear calls. Calls come from the whole dose curve; as a rule, active = well fitted inhibition curve with a large enough effect; inconclusive = small, poorly fitted or top-dose-only effect, or another doubt; inactive = no such curve, though single readings can be large or run the other way. Potencies beside an inconclusive call are fits to weak or partial responses and may not hold up.

Chains of the proteins cited; added tags and fusions are not shown. Lines headed by an entry give the natural chain unless they say otherwise; changes in a name come on top.
UniProt P18054: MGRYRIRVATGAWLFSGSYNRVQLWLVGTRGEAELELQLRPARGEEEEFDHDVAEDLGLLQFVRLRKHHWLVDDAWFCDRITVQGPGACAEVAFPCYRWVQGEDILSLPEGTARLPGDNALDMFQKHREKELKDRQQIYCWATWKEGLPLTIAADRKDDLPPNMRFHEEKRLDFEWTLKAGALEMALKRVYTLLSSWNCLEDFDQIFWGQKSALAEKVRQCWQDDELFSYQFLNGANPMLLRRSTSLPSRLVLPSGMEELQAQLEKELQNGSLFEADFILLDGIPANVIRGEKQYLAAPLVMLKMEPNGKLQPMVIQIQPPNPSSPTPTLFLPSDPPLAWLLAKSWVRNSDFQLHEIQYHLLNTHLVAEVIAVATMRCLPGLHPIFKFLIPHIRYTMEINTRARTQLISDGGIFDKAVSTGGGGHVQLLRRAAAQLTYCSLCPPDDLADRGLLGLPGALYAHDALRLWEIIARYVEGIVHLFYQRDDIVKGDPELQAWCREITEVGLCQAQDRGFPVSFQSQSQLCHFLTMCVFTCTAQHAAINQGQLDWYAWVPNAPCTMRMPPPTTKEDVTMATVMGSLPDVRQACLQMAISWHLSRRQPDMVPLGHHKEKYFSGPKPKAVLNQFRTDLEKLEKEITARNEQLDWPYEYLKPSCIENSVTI

What follows are molecules tested against Polyunsaturated fatty acid lipoxygenase ALOX12 (Homo sapiens) (UniProt P18054) (assay: Primary qHTS assay for inhibitors of human arachidonate 12S-lipoxygenase (ALOX12): Round 2). Settings: purified 12hLO, xylenol orange hydroperoxide absorbance; activity change, negative = inhibition: at 108 µM (top of the series) unless noted.
Outline: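 Purified human 12hLO at 150 nM in 25 mM Hepes, 0.01% Triton X-100, pH 7.0, preincubated 15 min at room temperature with compound. Reaction started with 40 uM arachidonic acid, 30 min at room temperature. Hydroperoxide measured by Fe-xylenol orange, 573/405 nm absorbance ratio.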
% is set by controls: 0 for no effect and ±100 for the full control effect; potency is the fitted concentration of half-maximal effect.

Row | SMILES | Potency | activity change, negative = inhibition
1 | Cc1cc(C)c(Cn2cnc(-c3ccc([N+](=O)[O-])cc3)c2)c(C)c1 | inactive | –
2 | CC(NC/C=C/c1ccccc1)c1ccccc1 (stereo not drawn) | inactive | –
3 | COc1ccc(Cc2nnc(SC(C)C(=O)Nc3ccc(F)cc3Cl)o2)cc1 (stereo not drawn) | inconclusive: 39.8 µM [inhibitor, partial curve, poor fit] | –
4 | S=C(SSC(=S)N1CCOCC1)N1CCOCC1 | active: 5.01 µM | –
5 | O=C(O)c1ccccc1Nc1cccc(OCc2ccc3ccccc3n2)c1 | inconclusive: 28.2 µM [inhibitor, partial curve, poor fit] and inconclusive: 31.6 µM [inhibitor, partial curve] | –
6 | COc1ccc(C)cc1-n1c(SCC(=O)Nc2ccc3c(c2)OCO3)nc2ccccc2c1=O | inactive | –
7 | O=C1COc2ccc(C(=O)COC(=O)/C=C/c3ccc(Br)o3)cc2N1 | inconclusive: 35.5 µM [inhibitor, partial curve] | –
8 | Cc1ccc(S(N)(=O)=O)cc1NC(=O)c1c(-c2c(Cl)cccc2Cl)noc1C | inconclusive: 112 µM [inhibitor, partial curve, poor fit] | –
9 | CCc1cc(C(=O)Nc2ccc(OC)nc2)sc1C | inconclusive: 50.1 µM [inhibitor, partial curve, poor fit] | –
10 | COC(=O)c1ccc2nc(C[C@@H]3C[C@@H](C(C)C)[C@H](CN)C=C3C)[nH]c2c1 | inconclusive: 39.8 µM [inhibitor, full curve] | –
11 | Cc1ccsc1C=C1C(=O)c2ccccc2C1=O | – | inconclusive: -33.8% [inhibitor]
12 | CCOC(=O)c1ccc(NC(=S)Nc2ccc(Br)cc2N)cc1 | inconclusive: 50.1 µM [inhibitor, partial curve, poor fit] | –
13 | COc1ccccc1NC(=O)Cc1nnc(SCC(=O)NC2=NCCS2)n1C | inconclusive: 56.2 µM [inhibitor, partial curve, poor fit] | –
14 | c1cncc(-c2ccc3ncnc(NCCN4CCOCC4)c3c2)c1 | inconclusive: 50.1 µM [inhibitor, partial curve, poor fit] | –
15 | O=S(=O)(N[C@H]1CO[C@H]2[C@@H]1OC[C@@H]2Nc1nccc(-c2ccc3c(c2)OCO3)n1)c1ccc2ccccc2c1 | inconclusive: 11.2 µM [inhibitor, full curve] | –
16 | COc1ccc2c(CC#N)c[nH]c2c1 | inconclusive: 39.8 µM [inhibitor, partial curve, poor fit] | –
17 | COc1cccc(C(=O)Nc2c(C(N)=O)oc3ccccc23)c1 | inactive | –
18 | CC1C(=O)N(Cc2ccc(F)cc2)c2ccccc2N1C(=O)c1c(F)cccc1F (stereo not drawn) | inconclusive: 112 µM [inhibitor, single point] | –
19 | Oc1ccc(C2(c3ccc(O)cc3)CCCC2)cc1 | active: 35.5 µM | –
20 | CCCOc1ccc(CNC(=O)CCCN2C(=O)CSc3c2c(C)nn3-c2ccccc2)cc1 | inconclusive: 112 µM [inhibitor, partial curve, poor fit] | –
21 | Clc1cccc(CNc2n[nH]c(-c3ccco3)n2)c1 | inconclusive: 112 µM [inhibitor, single point] | –

Row | SMILES | Potency | activity change, negative = inhibition
22 | Cc1c(Cl)cccc1-n1c(-c2cccnc2)n[nH]c1=S | inconclusive: 50.1 µM [inhibitor, partial curve, poor fit] | –
23 | Cc1cc2oc(=O)cc(CN3CCN(c4ccc(Cl)c(Cl)c4)CC3)c2cc1Cl | inconclusive: 112 µM [inhibitor, single point] | –
24 | CCOc1ccccc1/C=N/N1CCN(Cc2ccccc2)CC1 | inconclusive: 35.5 µM [inhibitor, single point] | –
25 | CC(=O)N/C(=C/c1ccc2c(c1)OCO2)C(=O)NC(Cc1ccccc1)C(=O)O (stereo not drawn) | inconclusive: 28.2 µM [inhibitor, partial curve, poor fit] | –
26 | CN(Cc1cccnc1)C(=O)[C@H]1C[C@@H](C(=O)O)N(C)[C@H]1c1cccc(Cl)c1 | inconclusive: 14.1 µM [inhibitor, full curve] | –
27 | Cc1cc(NC(=O)COC(=O)C2CC2)ccc1Br | inconclusive: 100 µM [inhibitor, single point] | –
28 | CN1CCC(OC2CCN(S(=O)(=O)c3cccc(Br)c3)CC2)CC1 | inconclusive: 22.4 µM [inhibitor, partial curve, poor fit] | –
29 | Cc1cc(C)c(OCC(=O)OCC(=O)NCc2ccco2)c(C)c1 | inconclusive: 112 µM [inhibitor, partial curve, poor fit] | –
30 | Cc1ccc(C)c(-c2cc3c(=O)n(CCNC(=O)c4ccc5ccccc5n4)ccn3n2)c1 | inconclusive: 35.5 µM [inhibitor, partial curve, poor fit] | –
31 | CC1=C(c2ccc(C(C)C)cc2)S(=O)(=O)N=C1N1CCC(C(=O)NC2CCCC2)CC1 | inconclusive: 50.1 µM [inhibitor, partial curve, poor fit] | –
32 | Cc1ccccc1C(=O)Nc1ccccc1N1CCCCC1 | inactive | –
33 | NCCCC(=O)N1CCC2(CC1)CC(NC(=O)CN)c1ccccc12 (stereo not drawn) | inconclusive: 10 µM [inhibitor, full curve] | –
34 | CC1=C(C(=O)OCCOc2ccccc2)C(c2ccc(C)o2)C2=C(CC(C)(C)CC2=O)N1 (stereo not drawn) | inactive | –
35 | CCCOc1ccc2c(CC)cc(=O)oc2c1C | inactive | –
36 | CCOc1ccc(C2/C(=C(\O)c3cccc(OC)c3)C(=O)C(=O)N2c2cc(C)on2)cc1OC (stereo not drawn) | inconclusive: 50.1 µM [inhibitor, partial curve, poor fit] | –
37 | Cn1c(N)c(C(=O)COC(=O)C2Cc3ccccc3CN2S(C)(=O)=O)c(=O)n(C)c1=O (stereo not drawn) | inconclusive: 10 µM [inhibitor, partial curve, poor fit] | –
38 | CCOC(=O)c1ccc(N2C(=O)c3n[nH]c(-c4ccco4)c3C2c2cccc([N+](=O)[O-])c2)cc1 (stereo not drawn) | active: 31.6 µM | –
39 | O=[N+]([O-])c1ccc(Cl)c(S(=O)(=O)Nc2ccc3cn[nH]c3c2)c1 | inactive | –
40 | COCCNC(=S)N/N=C(\C)c1ccc(OC(F)F)cc1 | inconclusive: 44.7 µM [inhibitor, partial curve, poor fit] | –
41 | COc1ccc(-c2c(C)oc3cc(OC(C)C(=O)O)ccc3c2=O)cc1OC (stereo not drawn) | inconclusive: 35.5 µM [inhibitor, partial curve, poor fit] | –
42 | Cc1ccc(S(=O)(=O)n2cc(CO)c3ccccc32)cc1 | inconclusive: 126 µM [inhibitor, partial curve, poor fit] | –

Row | SMILES | Potency | activity change, negative = inhibition
43 | O=C(CCc1ncc(-c2ccc(F)cc2)o1)Nc1ccncc1 | inconclusive: 0.316 µM [inhibitor, full curve, poor fit] | –
44 | CC1CN(C(=O)CCC(=O)NCCCN2CCN(Cc3ccccc3)CC2)c2cc(Cl)ccc2O1 (stereo not drawn) | inactive | –
45 | CC(=O)CCc1ccc(OCC(O)CNCCOc2ccc(C)cc2)cc1 (stereo not drawn) | inactive | –
46 | CCCCCCCCN1C(=O)[C@H](CC(=O)NCCc2ccccc2OC)C[C@@]2(C(=O)OCC)CCCC=C12 | inconclusive: 8.91 µM [inhibitor, partial curve, poor fit] | –
47 | COc1ccc(CC(=O)Nc2nc(C)cs2)cc1 | inactive | –
48 | COc1cccc(CN2C(=O)c3ccccc3C2C(=O)NCCc2ccccc2)c1 (stereo not drawn) | inconclusive: 141 µM [inhibitor, partial curve, poor fit] | –
49 | COC(=O)C(O)(c1ccc(NC(=O)c2ccc(F)cc2)cc1)C(F)(F)F (stereo not drawn) | inactive | –
50 | C[C@@H](NC(=O)c1ccccc1)c1c(-c2ccc(F)cc2)noc1C(=O)O | inconclusive: 28.2 µM [inhibitor, full curve] | –
51 | CCOC(=O)/C=C1/SCC(=O)N1CCOc1cccc(Br)c1 | inconclusive: 126 µM [inhibitor, partial curve, poor fit] | –
52 | Cc1c(Cl)cccc1NC(=S)NCc1cccs1 | inconclusive: 50.1 µM [inhibitor, partial curve, poor fit] | –
53 | N#Cc1ccc(/C=C2\CCCCn3c2nc2cc(C(=O)O)ccc2c3=O)cc1 | inconclusive: 100 µM [inhibitor, single point] | –
54 | Cc1ccc(OCC(O)Cn2c(N(C)Cc3ccccc3)nc3c2c(=O)[nH]c(=O)n3C)cc1 (stereo not drawn) | inconclusive: 8.91 µM [inhibitor, partial curve, poor fit] | –
55 | COc1ccccc1CNC(=O)CSc1nc2nc(C)c(Cc3ccccc3C)c(C)n2n1 | inconclusive: 56.2 µM [inhibitor, partial curve, poor fit] | –
56 | Cc1ncccc1OC1(C(=O)NCc2nnc3n2CCC3)CCNCC1 | inconclusive: 7.94 µM [inhibitor, full curve, poor fit] | –
57 | Cn1ncc2c(C(=O)N3CCOCC3)cc(C(C)(C)C)nc21 | inconclusive: 178 µM [inhibitor, partial curve, poor fit] | –
58 | CN(C)CCNc1nc2sc3c(c2c(=O)n1-c1ccccc1)CCCCC3 | inconclusive: 0.316 µM [inhibitor, single point] | –
59 | Cc1cc(=O)oc2cc(OCC(=O)Nc3ccccc3C(=O)O)ccc12 | – | inconclusive: -30.1% [inhibitor]
60 | CCCn1c(SCC(=O)NC2CCCCC2)nnc1-c1ccco1 | inactive | –
61 | Cc1cccc(C)c1NC(=O)c1sccc1SCC#N | inconclusive: 39.8 µM [inhibitor, partial curve] | –
62 | Cc1ccc(C)c(CN2CCCN(CC(=O)N3CCCC3)S2(=O)=O)c1 | inconclusive: 0.316 µM [inhibitor, full curve, poor fit] | –
63 | O=C(CSc1nnnn1-c1ccccc1)NC(=O)NCc1ccco1 | inconclusive: 35.5 µM [inhibitor, single point] | –

Taken from above.
Entry of COc1ccc2c(CC#N)c[nH]c2c1 under Potency: inconclusive: 39.8 µM [inhibitor, partial curve, poor fit]
Entry of Cc1ccc(S(=O)(=O)n2cc(CO)c3ccccc32)cc1 under Potency: inconclusive: 126 µM [inhibitor, partial curve, poor fit]
Entry of Cc1ccccc1C(=O)Nc1ccccc1N1CCCCC1 under Potency: inactive
Entry of Cc1cc(C)c(Cn2cnc(-c3ccc([N+](=O)[O-])cc3)c2)c(C)c1 under Potency: inactive
